Measurements reported in PubChem BioAssay AID2685 (National Center for Advancing Translational Sciences (NCATS), 2010).
The other results are listed elsewhere or left out. These are further read-outs of the screen, such as a control signal, another cell line or another target. No call is given for them. The list favours compounds with an active or inconclusive main result. Potencies come from curve fits of mixed quality, noted in brackets.

Assay: qHTS Assay for Lipid Storage Modulators in Drosophila S3 Cells;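 as to cell number change: cells counted by Cell Tracker Red CMTPX staining in the red channel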
Settings: BODIPY lipid droplet fluorescence, 18-24 h; for cell number change: measured here: cell count max response, cells fed with added oleic acid
Outline: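 Drosophila S3 cells got compounds at several concentrations plus oleic acid (400 uM solution). Laser-scanning cytometry with 488 nm excitation read lipid droplets at 500-530 nm and cells at 575-640 nm. Percent activity was relative to 20 uM Triacsin C.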

[1] = measured here: cell number channel AC50, cells fed with added oleic acid
[2] = measured here: lipid fluorescence (Fed channel) AC50, cells fed with added oleic acid

| SMILES | cell number change | AC50 [1] | AC50 [2] |
| --- | --- | --- | --- |
| COc1ccc(C(CC(=O)O)NC(=O)c2ccccc2)cc1OC (stereo unspecified) | -36.2% | 0.259 µM [falling, full curve] | 29.1 µM [falling, single point] |
| Cc1cccc(CN(C)CCc2ccccn2)c1 | -0.149% | 0.13 µM [falling, full curve, poor fit] |  |
| NNc1nc(-c2ccccc2)cc(-c2ccccc2)n1 | -24.7% |  | 20.6 µM [falling, single point] |
| Cc1ccnc(NC(=O)CN2C(=O)c3ccccc3S2(=O)=O)c1 | 47.8% | 10.3 µM [rising, partial curve] |  |
| O=C(Nc1nc(-c2ccc(Cl)s2)cs1)c1ccccc1 | -32.3% | 29.1 µM [falling, single point] | 0.259 µM [rising, partial curve, poor fit] |
| Oc1ccc(/C=C/c2ccc3cccc(O)c3n2)cc1Br | -36.6% | 18.4 µM [falling, single point] | 29.1 µM [falling, single point] |
| COc1ccc(-n2cccc2/C=C2/NC(=O)N(c3cccc(Cl)c3)C2=O)cc1 | -14.4% |  | 0.731 µM [falling, partial curve] |
| CN(/N=C/c1cccnc1)c1cnn(-c2ccc(F)c(Cl)c2)c(=O)c1Cl | 69.8% | 29.1 µM [rising, single point] |  |
| COc1ccc(N2C(=O)CCC(C(=O)N3CCCCC3)C2c2ccc(OC)c(OC)c2)cc1 (stereo unspecified) | 8.43% | 0.731 µM [falling, full curve] | 0.651 µM [falling, full curve] |
| O=C(CCN=C1NS(=O)(=O)c2ccccc21)OCC(=O)c1ccccc1 | -0.828% |  |  |
| CCC(C)NC(=O)C1c2cc(OC)c(OC)cc2C(=O)N(C)C1c1cccs1 (stereo unspecified) | -23.5% |  |  |
| Cc1ccc(Cl)cc1N1CCN(S(=O)(=O)c2c(C)noc2C)CC1 | 46.4% | 29.1 µM [rising, single point] | 29.1 µM [rising, single point] |
| COc1ccc2c(c1)C(=O)CC(O)(C(F)F)O2 (stereo unspecified) | -27.8% | 3.66 µM [falling, full curve, poor fit] |  |
| Cc1cccc2sc(N(CCN3CCOCC3)C(=O)CCS(=O)(=O)c3ccccc3)nc12 | -21.6% | 0.731 µM [falling, full curve, poor fit] |  |
| O=C(Nc1ccc(OC(F)(F)F)cc1)NC1CCC(Oc2ccc(C(=O)O)cc2)CC1 (stereo unspecified) | 8.1% | 5.17 µM [rising, single point] | 7.31 µM [falling, partial curve] |
| Cc1ccc(C(=O)N2CCN(C(=O)c3ccccc3)C2c2ccc(N(C)C)cc2)cc1 (stereo unspecified) | -3.42% |  | 6.51 µM [rising, single point] |
| CCN(CC)S(=O)(=O)c1ccc(N/N=C/c2cc(OC)c(OC)cc2OC)nc1 | 142% | 4.11 µM [rising, full curve, poor fit] | 29.1 µM [rising, partial curve] |
| CC(=O)c1ccc(N(CC(=O)NC2CCCC2)C(=O)CNC(=O)c2ccco2)cc1 | 11.7% |  |  |
| COc1ccc2cc(C(C)C(=O)Nc3cccc(S(=O)(=O)N(C)C)c3)ccc2c1 (stereo unspecified) | 38.5% | 0.366 µM [rising, full curve, poor fit] |  |

Part of the list above in order of formula weight, rising.

| SMILES | cell number change | AC50 [1] | AC50 [2] |
| --- | --- | --- | --- |
| COc1ccc(C(CC(=O)O)NC(=O)c2ccccc2)cc1OC (stereo unspecified) | -36.2% | 0.259 µM [falling, full curve] | 29.1 µM [falling, single point] |
| Cc1ccnc(NC(=O)CN2C(=O)c3ccccc3S2(=O)=O)c1 | 47.8% | 10.3 µM [rising, partial curve] |  |
| CN(/N=C/c1cccnc1)c1cnn(-c2ccc(F)c(Cl)c2)c(=O)c1Cl | 69.8% | 29.1 µM [rising, single point] |  |
| COc1ccc(-n2cccc2/C=C2/NC(=O)N(c3cccc(Cl)c3)C2=O)cc1 | -14.4% |  | 0.731 µM [falling, partial curve] |
| COc1ccc2cc(C(C)C(=O)Nc3cccc(S(=O)(=O)N(C)C)c3)ccc2c1 (stereo unspecified) | 38.5% | 0.366 µM [rising, full curve, poor fit] |  |

The list continues.

| SMILES | cell number change | AC50 [1] | AC50 [2] |
| --- | --- | --- | --- |
| COc1ccc(OCCSc2nnc(C(C)NC(=O)c3ccccc3F)n2C)cc1 (stereo unspecified) |  |  | 18.4 µM [falling, partial curve, poor fit] |
| Cn1cccc1/C=C1\CC(C(C)(C)C)C/C(=C\c2cccn2C)C1=O (stereo unspecified) | -30.5% | 6.51 µM [falling, full curve, poor fit] |  |
| CCN(CC)C(=O)c1ccc(C(=O)c2ccccc2)cc1 |  | 0.731 µM [falling, full curve] | 0.651 µM [falling, single point] |
| S=c1nc(-c2cccc(Br)c2)[nH][nH]1 | -10.6% |  | 23.1 µM [rising, single point] |
| CN(C)C(=O)c1cc(C(=O)c2ccccc2C(F)(F)F)c[nH]1 | 52.9% |  |  |
| COc1ccc(OC)c(S(=O)(=O)n2nc(C)cc2C)c1 | 10.7% | 0.366 µM [rising, full curve] |  |
| CCCn1nnc(NC(=O)c2cccc(OCc3ccccc3)c2)n1 | 36.9% | 29.1 µM [rising, single point] |  |
| Cc1ccc(C(=O)NC(=S)Nc2ccc(CN3CCOCC3)cc2)cc1 | -23.8% |  |  |
| Cc1cc(C)n2nc(C(=O)Nc3ccc(S(=O)(=O)N4CCCC4)cc3)nc2n1 | -35.9% | 5.8 µM [falling, partial curve, poor fit] |  |
| O=C(NCc1nc2ccccc2[nH]1)C1=C[C@H](c2ccccc2)C[C@H](OCCCCO)O1 | 10.1% |  | 18.4 µM [rising, single point] |
| Cc1cccc(N(CC(=O)N2CCN(c3ccc(F)cc3)CC2)S(C)(=O)=O)c1C | 14.1% |  | 1.3 µM [rising, partial curve] |
| CC(C)(C)n1nnnc1C(c1cccs1)N1CCN(c2ccccc2)CC1 (stereo unspecified) |  | 1.46 µM [rising, partial curve, poor fit] | 7.31 µM [rising, partial curve] |
| Cc1cc(C)n2ncc(-c3cccc(Br)c3)c2n1 | -17.7% |  | 29.1 µM [rising, single point] |
| COc1ccc(CNC(=O)C/C(C)=N/NC(=O)COc2ccc(C)cc2Br)cc1 |  | 0.231 µM [rising, full curve, poor fit] | 0.651 µM [rising, full curve, poor fit] |
| Cc1cccc(OCCc2nnc(N)s2)c1C |  | 0.082 µM [falling, single point] | 5.17 µM [falling, single point] |
| COc1ccc(C(C)=O)cc1COC(=O)c1c(C)noc1C | 21.7% |  | 0.366 µM [rising, full curve, poor fit] |
| CCC(CC)NC(=O)CCc1nc2ccccc2c(=O)[nH]1 | 36% | 14.6 µM [rising, single point] |  |
| Fc1ccc(-n2[nH]nnc2=S)cc1N1CCCC1 | -9.23% |  | 29.1 µM [rising, single point] |
| COc1ccc(CC(=O)N/N=C(\C)CC(=O)NCc2ccco2)cc1OC | 0.107% | 0.92 µM [falling, full curve, poor fit] |  |

| SMILES | cell number change | AC50 [1] | AC50 [2] |
| --- | --- | --- | --- |
| COc1cccc2cc(C(=O)n3ccc(C)n3)c(=O)oc12 | -1.49% |  | 2.91 µM [falling, single point] |
| Cc1ccc(Br)cc1S(=O)(=O)N1CCN(c2ccccc2)CC1 |  |  | 29.1 µM [rising, single point] |
| COc1cccc(-c2c(C(=O)N/N=C/c3ccsc3)nnn2-c2nonc2N)c1 | 8.66% |  |  |
| COC(=O)c1cc2ccsc2n1CC(=O)N(C)C1CCCCC1 | -23.7% | 1.3 µM [rising, partial curve] | 5.8 µM [rising, partial curve] |
| CC(C)C(NC(=O)OCc1ccccc1)C(=O)NC1CCCCC1 (stereo unspecified) | 0.144% | 6.51 µM [rising, single point] | 6.51 µM [rising, single point] |
| Nc1c(N(CCO)C(=O)COc2ccc(Cl)cc2)c(=O)[nH]c(=O)n1Cc1ccccc1 | -35.7% | 0.206 µM [falling, full curve, poor fit] | 2.31 µM [falling, full curve] |
| CCOC(=O)COc1ccc2c(c1)c(C(=O)OCC)c(C)n2CC | 16.3% | 2.59 µM [rising, single point] | 14.6 µM [rising, partial curve] |
| CCOC(=O)C1CCN(C(=O)c2ccccc2NC(=O)c2ccc(Br)cc2)CC1 | 59.4% | 20.6 µM [rising, single point] | 20.6 µM [rising, single point] |
| CCn1c(Cc2ccccc2)nnc1SCC(=O)Nc1ccccc1O | -27.6% | 0.092 µM [falling, full curve] | 0.326 µM [falling, full curve] |
| O=C1/C(=C/c2cccnc2)Oc2cc(OS(=O)(=O)c3ccc(Cl)cc3)ccc21 | 13.3% |  | 0.58 µM [rising, single point] |
| S=c1[nH]nc(C2CC2)n1Cc1ccco1 | -39.8% | 1.3 µM [falling, full curve] | 3.66 µM [falling, full curve] |
| CC1CN(C(=O)COC(=O)c2ccc(Cl)nc2)CC(C)O1 (stereo unspecified) | 21.4% |  | 0.82 µM [falling, full curve] |
| CC(NC(=O)CNC(=O)c1ccc2c(c1)OCO2)c1ccc(S(N)(=O)=O)cc1 (stereo unspecified) | -1.38% | 0.82 µM [falling, single point] | 0.82 µM [falling, single point] |
| C[N+]1(CC(O)c2ccccc2)CCCCCC1 (stereo unspecified) | 10.8% |  | 16.4 µM [falling, single point] |
| COCCNC(=O)COc1ccccc1Cl | 13.6% |  | 1.64 µM [falling, single point] |
| CCCOc1ccc(Br)cc1/C=N/O | -48.2% | 13 µM [falling, partial curve] | 0.092 µM [rising, full curve, poor fit] |
| O=C(O)c1ccc(CSc2ncn[nH]2)cc1 | -24% | 3.26 µM [falling, full curve, poor fit] | 5.17 µM [falling, full curve] |
| Cc1ccc(OCCNC(=O)c2ccccc2F)cc1 | 13.9% |  | 0.58 µM [falling, single point] |
